Results taken from patent publication US20140093514A1.
Results are given in words; binding and its absence hold for the method and conditions named.

Protein sequences, listed by entry. Tags and fused reporters are not part of them.
UniProt P43358: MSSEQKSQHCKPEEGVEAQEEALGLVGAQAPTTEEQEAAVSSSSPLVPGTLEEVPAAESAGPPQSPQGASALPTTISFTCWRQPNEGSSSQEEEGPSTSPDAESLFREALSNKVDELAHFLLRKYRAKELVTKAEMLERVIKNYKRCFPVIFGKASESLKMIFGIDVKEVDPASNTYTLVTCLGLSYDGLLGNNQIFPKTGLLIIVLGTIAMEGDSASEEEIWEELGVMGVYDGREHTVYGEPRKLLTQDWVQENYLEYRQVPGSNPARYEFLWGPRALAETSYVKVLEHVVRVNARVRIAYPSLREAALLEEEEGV

Assays:
recombinant MAGEA4 [1] = biological target: recombinant MAGEA4 (UniProt P43358); assay: Western blot on recombinant protein
recombinant MAGEA4 [2] = biological target: recombinant MAGEA4 (UniProt P43358); assay: Western blot; recombinant MAGEA4 in lane B, human antibody as probe

binding (recombinant MAGEA4 [1]): no binding
binding (recombinant MAGEA4 [2]): no binding
B1: 20C10 (antibody, V domains shown)
VH: QLQLQESGPGLVKPSETLSLTCTVSGDSISASTDSWGWIRQSPGKGLEWIGVTSYSGRPYYNPSLKRRVTISVDTSKNHFSLKLTSVTAADRALYYCARRPSLIWAFDIWGQGTMVTVSS
VL: QSALTQPASVSGSPEQSITISCTGTSSAVGNYNLVSWYQHHPGKAPLLIIYDVNERPSGVSHRFSGSRSGNTASLTISGLLAEDEADYFCCSYGGTSSLHYVFGTGTRVTVL
